Laboratory results: PMC10463337
These are yes or no findings as the source states them, for the method shown. In cells and extracts the contact can be indirect. Some binding calls cover weakened binding; strength is not graded here.

Protein sequences, listed by entry. Tags and fused reporters are not part of them.
UniProt P29375: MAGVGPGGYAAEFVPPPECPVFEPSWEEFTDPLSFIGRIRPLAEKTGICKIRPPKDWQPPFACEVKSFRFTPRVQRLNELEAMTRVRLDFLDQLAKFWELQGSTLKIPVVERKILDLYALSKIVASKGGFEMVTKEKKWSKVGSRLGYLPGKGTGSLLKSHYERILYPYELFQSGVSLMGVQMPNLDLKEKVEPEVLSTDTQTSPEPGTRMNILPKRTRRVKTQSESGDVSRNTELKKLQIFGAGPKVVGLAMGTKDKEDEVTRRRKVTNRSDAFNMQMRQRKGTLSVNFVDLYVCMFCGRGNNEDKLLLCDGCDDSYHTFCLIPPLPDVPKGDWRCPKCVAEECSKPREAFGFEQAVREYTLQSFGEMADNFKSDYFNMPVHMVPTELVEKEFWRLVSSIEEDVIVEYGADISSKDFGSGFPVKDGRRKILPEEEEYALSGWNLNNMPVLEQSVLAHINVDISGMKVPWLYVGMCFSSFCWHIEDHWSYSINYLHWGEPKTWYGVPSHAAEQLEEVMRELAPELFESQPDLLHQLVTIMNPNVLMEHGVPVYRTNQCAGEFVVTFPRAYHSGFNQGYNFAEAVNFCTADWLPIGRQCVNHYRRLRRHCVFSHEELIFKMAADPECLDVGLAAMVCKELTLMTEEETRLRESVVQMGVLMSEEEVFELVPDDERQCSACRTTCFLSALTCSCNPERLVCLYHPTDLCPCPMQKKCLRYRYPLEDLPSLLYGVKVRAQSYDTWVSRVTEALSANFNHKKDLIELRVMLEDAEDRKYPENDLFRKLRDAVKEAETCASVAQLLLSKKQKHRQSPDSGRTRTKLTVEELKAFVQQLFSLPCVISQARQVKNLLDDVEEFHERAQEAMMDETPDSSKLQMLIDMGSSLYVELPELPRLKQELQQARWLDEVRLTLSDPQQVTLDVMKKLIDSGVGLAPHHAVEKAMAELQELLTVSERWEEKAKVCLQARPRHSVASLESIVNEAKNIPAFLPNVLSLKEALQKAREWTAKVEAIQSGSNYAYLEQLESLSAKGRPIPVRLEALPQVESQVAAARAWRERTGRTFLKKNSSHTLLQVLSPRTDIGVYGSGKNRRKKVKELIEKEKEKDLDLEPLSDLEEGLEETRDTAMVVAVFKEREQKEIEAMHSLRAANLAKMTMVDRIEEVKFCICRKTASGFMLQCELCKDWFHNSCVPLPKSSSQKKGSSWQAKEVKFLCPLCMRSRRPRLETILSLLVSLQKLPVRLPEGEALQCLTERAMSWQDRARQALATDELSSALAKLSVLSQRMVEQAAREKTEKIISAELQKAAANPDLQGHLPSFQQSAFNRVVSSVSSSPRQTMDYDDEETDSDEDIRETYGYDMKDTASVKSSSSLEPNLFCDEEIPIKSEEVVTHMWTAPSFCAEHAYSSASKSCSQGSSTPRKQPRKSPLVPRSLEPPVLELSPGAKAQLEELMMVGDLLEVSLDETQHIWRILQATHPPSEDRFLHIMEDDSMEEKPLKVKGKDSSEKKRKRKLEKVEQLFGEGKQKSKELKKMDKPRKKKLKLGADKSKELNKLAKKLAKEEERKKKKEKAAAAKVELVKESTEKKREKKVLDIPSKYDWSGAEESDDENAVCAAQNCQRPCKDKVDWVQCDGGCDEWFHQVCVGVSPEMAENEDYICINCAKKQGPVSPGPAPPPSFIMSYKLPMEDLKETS

Legend:
[1] = biological target: CUL4A (human (endogenous in K562)) (UniProt Q13619); assay: co-IP; total (whole) cell extracts of K562 RepID WT and KO cells; IP with 3 µg anti-CUL4A or anti-JARID1A, 14 h at 4 °C, Sepharose beads 2 h, washed three times with PBS; immunoblot; also after PMA for 48 h
[2] = biological target: JARID1A (human (endogenous in K562)) (UniProt P29375); assay: as above

binding [1] | binding [2] | Substance
binds | – | Replication initiation determinant protein (RepID) (from UniProt Q8WWQ0 1-1821)
– | binds | CUL4A (from UniProt Q13619 1-759)
